# Counter-ions that a name gives are not always drawn. This is one part of the list. The calls rarely recur for the same compound in another form.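 In K562 cells expressing nanoluciferase-fused kinases, luminescence was recorded at 4 h intervals between 2 and 18 h, normalized as percent of control with DMSO at 100% and a positive control at 0%. A significant (2 sigma) signal drop marks a time point as decreased. The authors' rule for a hit is not shown and takes in more than the number of time points.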
# By UniProt entry, the sequences of proteins in these tests, tags left out.
# UniProt Q01974, whole entry: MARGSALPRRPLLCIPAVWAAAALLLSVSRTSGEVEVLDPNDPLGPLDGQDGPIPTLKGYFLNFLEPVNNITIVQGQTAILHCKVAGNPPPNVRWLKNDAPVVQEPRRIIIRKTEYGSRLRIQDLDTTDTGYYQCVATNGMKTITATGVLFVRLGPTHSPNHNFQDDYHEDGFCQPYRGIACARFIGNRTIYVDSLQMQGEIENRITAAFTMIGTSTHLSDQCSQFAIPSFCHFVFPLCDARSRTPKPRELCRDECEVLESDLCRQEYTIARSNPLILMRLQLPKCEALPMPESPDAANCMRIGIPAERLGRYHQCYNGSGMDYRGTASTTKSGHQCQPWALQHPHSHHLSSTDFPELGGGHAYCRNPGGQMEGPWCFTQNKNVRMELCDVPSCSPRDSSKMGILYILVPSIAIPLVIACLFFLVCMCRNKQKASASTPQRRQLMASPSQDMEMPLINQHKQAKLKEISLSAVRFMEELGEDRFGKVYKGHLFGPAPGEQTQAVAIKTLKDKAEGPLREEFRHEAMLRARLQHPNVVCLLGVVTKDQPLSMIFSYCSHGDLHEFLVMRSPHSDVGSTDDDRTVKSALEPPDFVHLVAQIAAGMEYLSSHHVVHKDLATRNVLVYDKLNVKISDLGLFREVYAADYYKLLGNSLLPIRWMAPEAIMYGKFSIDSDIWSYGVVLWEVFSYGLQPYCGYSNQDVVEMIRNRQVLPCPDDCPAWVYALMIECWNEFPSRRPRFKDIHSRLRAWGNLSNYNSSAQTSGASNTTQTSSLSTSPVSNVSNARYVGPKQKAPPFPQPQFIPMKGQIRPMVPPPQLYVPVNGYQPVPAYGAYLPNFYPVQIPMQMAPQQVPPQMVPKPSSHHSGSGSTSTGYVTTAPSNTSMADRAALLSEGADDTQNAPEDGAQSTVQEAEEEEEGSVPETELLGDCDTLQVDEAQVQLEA
# Biological target: ROR2 (UniProt Q01974)
# Experiment: number of time points (of 5) at which kinase-Nluc abundance scored as decreased, DMSO-normalised (count); higher = more persistent destabilization
# Settings: K562; 2-18 h
row,SMILES,number of time points
1,CC(C)n1ncnc1-c1cn2c(n1)-c1ccc(O[C@@H](C)C(N)=O)cc1OCC2 (10 µM),0
2,O=C(c1cccc(Cl)c1F)N1CCN(Cc2cccc(Nc3nccs3)n2)CC1 (2.5 µM),0
3,COc1cc(F)ccc1-c1ncnc(Nc2cccc(C[S@](C)(=N)=O)c2)n1 [Atuveciclib] (2.5 µM),0
4,Cc1cnc(NC(=O)c2cc(Oc3cnc(C(=O)N(C)C)nc3)c3cc(C)oc3c2)cn1 (10 µM),0
5,CC1=C(C(=O)Nc2cc3cn[nH]c3cc2F)C(c2ccc(C(F)(F)F)cc2)CC(=O)N1 (stereo unspecified) (10 µM),0
6,NCC1CCC(CNc2nc(NCc3ccccc3OC(F)(F)F)ncc2[N+](=O)[O-])CC1 (stereo unspecified) [PKC-theta inhibitor] (10 µM),0
7,O=C1Nc2ccc(I)cc2/C1=C/c1cc(Br)c(O)c(Br)c1 (10 µM),0
8,COc1cc(-c2oc3cc(O)cc(O)c3c(=O)c2O)ccc1O [Isorhamnetin] (10 µM),0
9,O=C1OC(/C=C/c2ccccc2)=NC/1=C\c1cccnc1 (10 µM),0
10,Cn1ncc(NC(=O)c2nc(-c3c(F)cccc3F)sc2N)c1N1CC[C@@H](N)[C@H](F)CC1 (10 µM),0
11,CNC(=O)CNc1cnc2ccc(-c3ccc(OC)c(OC)c3)cc2n1 (10 µM),0
12,CO[C@H]1C[C@@H]2CC[C@@H](C)[C@@](O)(O2)C(=O)C(=O)N2CCCC[C@H]2C(=O)O[C@H]([C@H](C)C[C@@H]2CC[C@@H](OCCO)[C@H](OC)C2)CC(=O)[C@H](C)/C=C(\C)[C@@H](O)[C@@H](OC)C(=O)[C@H](C)C[C@H](C)/C=C/C=C/C=C/1C [Everolimus] (10 µM),0
13,O=C(Nc1cccnc1)c1cc(-c2ccnc(F)c2)ccc1OCc1ccccc1 (10 µM),0
14,COc1c(O)cc2oc(-c3ccc(O)cc3)cc(=O)c2c1O [Hispidulin] (10 µM),0
15,O=C1CC[C@H](NC(=O)Cc2ccccc2)C(=O)N1 [Antineoplaston A10] (10 µM),0
16,CC(C)Oc1ccc(F)c(-c2cnc(N)c(C(=O)Nc3cnccc3N3CCC[C@@H](C(=O)O)C3)n2)c1 (2 µM),0

row,SMILES,number of time points
1,Nc1nc2c(nc(Br)n2[C@@H]2O[C@@H]3COP(=O)(O)O[C@H]3[C@H]2O)c(=O)[nH]1 [8-Bromo-cGMP (sodium)] (10 µM),0
2,Cc1cc(-n2c(=O)ccc3c[nH]c4nccc-4c32)ccc1F (10 µM),0
3,CO[C@H]1CC[C@H](N2C(=O)CNc3ncc(-c4ccc(C(C)(C)O)nc4)nc32)CC1 (2.5 µM),0
4,COc1cc2c(cc1OC)/C(=C/c1ccc(O)cc1)C(=O)N2 (10 µM),0
5,NCCOc1ccc(Cl)cc1C(=O)Nc1ccc([N+](=O)[O-])cc1Cl [HJC0152 hydrochloride] (2 µM),0
6,CCN(CC)CCOc1ccc(Nc2nc(-c3ccccc3NC(=O)CCN3CCN(C)CC3)nc3ccccc23)cc1 (2.5 µM),0
7,C=CC(=O)N1CCN(C(=O)CNc2cc(I)c(Cl)cc2O)CC1 [K-Ras(G12C) inhibitor 12] (10 µM),0
8,N[C@@H]1CCCN(c2c(/C=C3\SC(=O)NC3=O)cccc2-c2ccccc2)C1 (10 µM),0
9,O=C(Nc1cc(Cl)cc2c1[nH]c1cnccc12)c1cccnc1 (10 µM),0
10,C=C1C(=O)[C@@]23[C@H](O)C[C@@H]4C(C)(C)C(=O)CC[C@@]4(C)[C@@H]2CC[C@@H]1[C@H]3O [Glaucocalyxin A] (2.5 µM),0
11,C[C@@H]1O[C@@H](Oc2cc(O)c3c(=O)c(O[C@@H]4O[C@@H](C)[C@H](O)[C@@H](O)[C@H]4O)c(-c4ccc(O)cc4)oc3c2)[C@H](O)[C@H](O)[C@H]1O [Kaempferitrin] (10 µM),0
12,Cc1c(C(=O)Nc2ccc(Oc3ccnc4[nH]cc(-c5ccccc5)c34)c(F)c2)c(=O)n(-c2ccc(F)cc2)n1C (10 µM),0
13,c1nc2c(NC3CCCCC3)nc(Nc3ccc(N4CCOCC4)cc3)nc2[nH]1 [Reversine] (10 µM),0
14,CN1CCN(c2ccc(Nc3ncc4cc(C#N)c(=O)n(C5CCCC5)c4n3)cc2)CC1 (10 µM),0
15,NC[C@@](O)(c1ccc(Cl)cc1)c1ccc(-c2cn[nH]c2)cc1 (10 µM),0

# In the list so far, these have a nitro group on carbon:
row,SMILES,number of time points
6,NCC1CCC(CNc2nc(NCc3ccccc3OC(F)(F)F)ncc2[N+](=O)[O-])CC1 (stereo unspecified) [PKC-theta inhibitor] (10 µM),0
5,NCCOc1ccc(Cl)cc1C(=O)Nc1ccc([N+](=O)[O-])cc1Cl [HJC0152 hydrochloride] (2 µM),0
